Test results reported in patent US20230338285A1, “PHARMACEUTICAL COMPOSITION COMPRISING HYDROXYCHLOROQUINE AND USES THEREOF” (priority 2020, published 2023).

Assay: Aerosol deposition in Vitrocell cell-free inserts
Details: for Mean deposition in cell-free Vitrocell inserts: 2.5% drug in propylene glycol

For CCN(CC)CCCC(C)Nc1ccnc2cc(Cl)ccc12 (stereo not drawn) [chloroquine], the Percent deposition (25 puffs) was 0.27%, the “Mean deposition in cell-free Vitrocell inserts” value (25 puffs) was 7.998 µg and the Percent deposition (50 puffs) was 0.27%. The “Mean deposition in cell-free Vitrocell inserts” value (50 puffs) was 15.022 µg, the Percent deposition (100 puffs) was 0.24% and the “Mean deposition in cell-free Vitrocell inserts” value (100 puffs) was 28.311 µg.
